Assay results published in PubChem BioAssay AID1347421 (Sanford-Burnham Center for Chemical Genomics, 2020).
Whole data set: some 1,500 compounds, median “activity” near 2, cut for the lowest 2% near -18. Some of the results follow. Activity calls are given as the source filed them.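 The calls were made as follows: active = inhibition of at least 40% at 10 µM; inconclusive = no clear call, values can overlap the other calls; inactive = the rest.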

Chains of the proteins cited; added tags and fusions are not shown. Lines headed by an entry give the natural chain unless they say otherwise; changes in a name come on top.
UniProt O00391: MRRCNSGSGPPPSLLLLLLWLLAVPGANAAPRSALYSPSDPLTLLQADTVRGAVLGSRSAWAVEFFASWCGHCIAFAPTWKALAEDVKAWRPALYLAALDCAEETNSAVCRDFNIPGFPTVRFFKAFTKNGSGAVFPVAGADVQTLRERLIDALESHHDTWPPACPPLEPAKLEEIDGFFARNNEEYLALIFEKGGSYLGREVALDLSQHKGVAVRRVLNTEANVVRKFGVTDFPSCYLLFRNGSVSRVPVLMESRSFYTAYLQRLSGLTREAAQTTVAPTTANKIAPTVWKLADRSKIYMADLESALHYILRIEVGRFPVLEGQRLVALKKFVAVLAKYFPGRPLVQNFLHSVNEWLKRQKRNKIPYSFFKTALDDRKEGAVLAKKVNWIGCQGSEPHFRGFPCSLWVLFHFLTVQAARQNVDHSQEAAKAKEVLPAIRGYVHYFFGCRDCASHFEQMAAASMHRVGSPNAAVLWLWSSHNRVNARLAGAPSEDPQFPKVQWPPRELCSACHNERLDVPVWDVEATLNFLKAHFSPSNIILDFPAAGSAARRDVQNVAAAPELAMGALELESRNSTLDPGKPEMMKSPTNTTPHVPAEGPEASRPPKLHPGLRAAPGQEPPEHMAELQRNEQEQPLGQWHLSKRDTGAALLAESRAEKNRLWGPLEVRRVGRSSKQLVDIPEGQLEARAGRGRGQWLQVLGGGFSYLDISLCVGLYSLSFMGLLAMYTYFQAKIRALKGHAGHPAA

target: Sulfhydryl oxidase 1 (Homo sapiens) (UniProt O00391); assay: human QSOX1 sulfhydryl oxidase inhibition – biochemical, ROS-Glo luminescence, single concentration, confirmation (AID 1347421); details: recombinant hQSOX1, RNase A substrate, ROS-Glo H2O2 luminescence; at 10 µM;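 also: 0% = DMSO wells with enzyme and 100% = wells lacking QSOX1 enzyme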

| Compound | activity |
| --- | --- |
| COc1cc(CNCc2cnn(C)c2)ccc1OCC(O)CN1CCSCC1 (centres undefined) | inactive: 0% |
| CN(C)c1nc2nonc2nc1NCc1cccc2[nH]ccc12 | inactive: 0% |
| CSCCCN1CC[C@@H](N2CCN(c3ccccc3F)CC2)[C@H](O)C1 | 4.2% |
| CC(C)c1nc(C(=O)N2CCOC(Cc3ccccc3)C2)cs1 (centres undefined) | 5.5% |
| c1ccc(-c2noc(CN3CCN(Cc4ccc5c(c4)OCO5)CC3)n2)cc1 | 7.5% |
| O=C(c1nc2ccc(Cl)cn2c1CN1CCCC(O)C1)N1CCCCCCC1 (centres undefined) | 7.7% |
| CSc1ncc(CNC2CCCN(CCCc3ccccc3)C2)cn1 (centres undefined) | 6% |
| O=C(c1cccc(-c2nnc(-c3ccccc3)o2)c1)N1CCN(C(=O)c2ccco2)CC1 | inactive: -3.9% |
| O=C(c1ccoc1)N1CCC2(CCCN(Cc3cccc(F)c3F)C2)C1 (centres undefined) | 3.7% |
| CN(CC1CCCN1C)C(=O)Cn1nnnc1CN1CCCCCC1 (centres undefined) | 10.8% |
| Fc1cccc(C2(CN3CCN(CCn4ccnc4)CC3)CCOC2)c1 (centres undefined) | 1.2% |
| CCC1CCCCN1S(=O)(=O)c1ccc(NS(C)(=O)=O)cc1 (centres undefined) | inactive: -12.3% |
| CCC(=O)Oc1ccc(-c2nc(-c3cccc(OC)c3)no2)cc1 | active: 86.9% |
| COc1ccc(CC2CN(Cc3ccco3)CCO2)cc1 (centres undefined) | 1.8% |
| CN(C)C(=O)Nc1ccc2c(c1)CCC2 | inactive: -6.3% |
| OCCC1CN(Cc2ccncc2)CCN1CC1CCCCC1 (centres undefined) | 3.1% |
| O=C(CCC1CCN(C(=O)CSc2ccccc2)CC1)NCc1cccnc1 | 4.2% |
| COc1ccc(CN(C)Cc2csc(C)n2)c(OCC(O)CN2CCCC2)c1 (centres undefined) | 3.2% |
| CN(Cc1cccc(OCC(O)CN(C)C2CCCCC2)c1)Cc1ccno1 (centres undefined) | 0.2% |
| COc1ccc(CC2CN(C(=O)CCc3csc(N)n3)CCO2)cc1 (centres undefined) | 0.6% |
| O=C1CC(NCc2cccc3c2OCO3)CN1Cc1ccccc1C(F)(F)F (centres undefined) | 5.2% |
| CN(Cc1nccn1C)C1CCCN(CCCc2ccccc2)C1 (centres undefined) | 2.7% |
| Cc1nn2cc(CNCc3cccc(OCC(O)CN4CCOCC4)c3)nc2s1 (centres undefined) | inactive: -1.8% |
| Cn1cc(CCNCc2cccc(OCC(O)CN3CCOCC3)c2)cn1 (centres undefined) | 2.3% |
| O=C1N(CC2CCCCC2)CCCC12CCN(C1CCSCC1)C2 (centres undefined) | 1.8% |
| O=C1CCC(C(=O)N2CCCCO2)CN1CCCN1CCOCC1 (centres undefined) | 6.6% |
| CSc1ncc(Cl)c(C(=O)NCCN2CCOCC2)n1 | inactive: -13.1% |

| Compound | activity |
| --- | --- |
| OC(COc1ccccc1CNCCOc1cccnc1)CN1CCSCC1 (centres undefined) | inactive: -3.8% |
| O=C(CCN1CCCO1)N1CCOC(CCc2ccccc2)C1 (centres undefined) | inactive: -2.8% |
| COc1ccc(NC(=O)c2ccc3c(c2)NC(=O)CO3)cc1OC | 2.1% |
| COc1cccc(CN2CCCC3(CCN(Cc4ccccn4)C3)C2)c1OC (centres undefined) | 7.4% |
| O=C(O)c1ccc(S(=O)(=O)N2CCN(c3ccc(F)cc3)CC2)cc1 | 7.5% |
| CCOC(=O)C1(Cc2ccc(OC)cc2)CCN(C(=O)[C@@H]2CCCN2C(C)=O)CC1 | 3.8% |
| CC(=O)NCC(=O)N1CCOC(CCCc2ccccc2)C1 (centres undefined) | 2.6% |
| O=C(Cc1ccsc1)N(CC1CCN(C2CCCC2)CC1)CC1CCCO1 (centres undefined) | 2.6% |
| COc1cc(CN(C)Cc2csc(C)n2)ccc1OCC(O)CN(C)C(C)C (centres undefined) | inactive: -0.4% |
| O=C1CCC(C(=O)N2CCOC(Cc3ccccc3Cl)C2)=NN1 (centres undefined) | 0.8% |
| O=C(c1cn[nH]c1)N1CCCC(CCc2ccc(F)cc2F)C1 (centres undefined) | 7.5% |
| COc1ccc(CN2CCN(CC=C(C)C)C(CCO)C2)c(OC)c1C (centres undefined) | inactive: -1.3% |
| COc1ccccc1/C=C/CN1CCNC(=O)C1CC(=O)NCCOc1cccnc1 (centres undefined) | inactive: -2% |
| O=C(Nc1ccccc1Br)c1ccccc1[N+](=O)[O-] | 1.2% |
| O=C1N(CC2CC2)CCCC12CCN(Cc1cccn1-c1cccnc1)C2 (centres undefined) | 2.6% |
| CC(C)CNC1CCCc2nc(N(C)C)ncc21 (centres undefined) | 10.6% |
| COc1cc(CNCc2ccccc2)c(Cl)cc1OCCO | 0.3% |
| CC(NCc1c(C(=O)N2CCCC2)nc2sccn12)c1ccccc1Cl (centres undefined) | inactive: -3.8% |
| CSCCC(=O)N1CCC2(CCCN(CCc3ccccc3)C2=O)C1 (centres undefined) | 5.3% |
| COc1ccc(C(=O)N2CCOC(Cc3ccccc3)C2)o1 (centres undefined) | inactive: -3.8% |
| Cc1nc(NCC2(c3cccc(F)c3)CCOC2)nn1C(C)C (centres undefined) | 0.3% |
| COc1ccc(CNCCn2cccn2)c(OCC(O)CN2CCCC2)c1 (centres undefined) | 1.2% |
| COC(=O)c1ccc(CNCc2cccc(OCC(O)CN3CCOCC3)c2)cc1 (centres undefined) | inactive: -2.2% |
| O=C(NC1CCCN(Cc2ccccc2F)C1)c1cc2ccccc2oc1=O (centres undefined) | inactive: -4.4% |
| CCn1cc(-c2nc(-c3ccccn3)no2)cn1 | active: 44.4% |
| Cc1ccccc1OCC(O)CNC1CCCCC1 (centres undefined) | inactive: -14.2% |
| NC(=O)c1cccnc1N1CCOC(Cc2ccccc2)C1 (centres undefined) | 4.2% |

Two of the compounds above, comma-delimited:
Compound,activity
COc1ccc(CN2CCN(CC=C(C)C)C(CCO)C2)c(OC)c1C (centres undefined),inactive: -1.3%
Cc1nc(NCC2(c3cccc(F)c3)CCOC2)nn1C(C)C (centres undefined),0.3%
